Test results published in paper doi:10.1101/2021.12.09.471821.
No constants are given. Whether binding was seen depends on the method and setting. Binding calls can cover weak binding; strength is not graded here.

Molecular target: eukaryotic initiation factor 1A (eIF1A), unlabeled (human)
Test: cryo-EM structure

B1: eukaryotic initiation factor 5B (eIF5B), unlabeled, as added to the 48S complex for cryo-EM (protein, UniProt O60841 1-1220)
chain: MGKKQKNKSEDSTKDDIDLDALAAEIEGAGAAKEQEPQKSKGKKKKEKKKQDFDEDDILKELEELSLEAQGIKADRETVAVKPTENNEEEFTSKDKKKKGQKGKKQSFDDNDSEELEDKDSKSKKTAKPKVEMYSGSDDDDDFNKLPKKAKGKAQKSNKKWDGSEEDEDNSKKIKERSRINSSGESGDESDEFLQSRKGQKKNQKNKPGPNIESGNEDDDASFKIKTVAQKKAEKKERERKKRDEEKAKLRKLKEKEELETGKKDQSKQKESQRKFEEETVKSKVTVDTGVIPASEEKAETPTAAEDDNEGDKKKKDKKKKKGEKEEKEKEKKKGPSKATVKAMQEALAKLKEEEERQKREEEERIKRLEELEAKRKEEERLEQEKRERKKQKEKERKERLKKEGKLLTKSQREARARAEATLKLLQAQGVEVPSKDSLPKKRPIYEDKKRKKIPQQLESKEVSESMELCAAVEVMEQGVPEKEETPPPVEPEEEEDTEDAGLDDWEAMASDEETEKVEGNKVHIEVKENPEEEEEEEEEEEEDEESEEEEEEEGESEGSEGDEEDEKVSDEKDSGKTLDKKPSKEMSSDSEYDSDDDRTKEERAYDKAKRRIEKRRLEHSKNVNTEKLRAPIICVLGHVDTGKTKILDKLRHTHVQDGEAGGITQQIGATNVPLEAINEQTKMIKNFDRENVRIPGMLIIDTPGHESFSNLRNRGSSLCDIAILVVDIMHGLEPQTIESINLLKSKKCPFIVALNKIDRLYDWKKSPDSDVAATLKKQKKNTKDEFEERAKAIIVEFAQQGLNAALFYENKDPRTFVSLVPTSAHTGDGMGSLIYLLVELTQTMLSKRLAHCEELRAQVMEVKALPGMGTTIDVILINGRLKEGDTIIVPGVEGPIVTQIRGLLLPPPMKELRVKNQYEKHKEVEAAQGVKILGKDLEKTLAGLPLLVAYKEDEIPVLKDELIHELKQTLNAIKLEEKGVYVQASTLGSLEALLEFLKTSEVPYAGINIGPVHKKDVMKASVMLEHDPQYAVILAFDVRIERDAQEMADSLGVRIFSAEIIYHLFDAFTKYRQDYKKQKQEEFKHIAVFPCKIKILPQYIFNSRDPIVMGVTVEAGQVKQGTPMCVPSKNFVDIGIVTSIEINHKQVDVAKKGQEVCVKIEPIPGESPKMFGRHFEATDILVSKISRQSIDALKDWFRDEMQKSDWQLIVELKKVFEII
With B1 the binding was “binds weakly”.
